# Experimental data: PubChem BioAssay AID504580 (NMMLSC, 2011)
# Out of some 2,000 compounds screened, fewer than 10 were called active.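 The calls were made as follows: active = compounds that quench the bead-bound fluorescent RNA probe, cutting fluorescence to under half of the solvent control; inactive = the rest.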 This is a selection; strong and weak results do not stand in their true shares.
# Experiment: bead-bound FAM aptamer signal quenchers – biochemical, single point, cherry pick 1, flow cytometry, artefact control for GRK2 RNA aptamer inhibitor project, confirmation (AID 504580);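 also: counterscreen run without GRK2 so only probe quenching by compound is measured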
# Conditions: Carboxyfluorescein RNA aptamer on beads, flow cytometry quenching; at 10 µM; active compounds read low
row,Compound,fluorescence response (% of DMSO)
1,Cc1c(C(=O)O)cccc1-n1c(C)cc(/C=C2\C(=O)NC(=O)N(c3ccc4c(c3)OCO4)C2=O)c1C,inactive: 99.4%
2,Nc1ccc2ccc3cccc[n+]3c2c1,active: 44.3%
3,O=C1NC(=O)N(Cc2ccco2)C(=O)/C1=C\c1cccn1CCOc1ccccc1,inactive: 102%
